{"source": "patent US20030199423A1", "binders": {"B1": {"name": "recombinant ICR-8.1 antibody HuVHV/MuVK (antibody, human IgG4, V domains shown)", "VH": "QVQLVQSGAEVKKPGASVKVSCKASGYTFTDCIILWVRQAPGQGLEWMGKINPYFGTTTYNLKFKGRVTITVDTSTSTAYMELSSLRSEDTAVYYCARKEAYPDAMDYWGQGTLVTVSS", "VL": "DAVMTQTPLSLPVSLGDQASISCRSSQSLVHSNGDTYLHWYLQKPGQSPQLLIYKVSNRFSGVPDRFSGSGSGTDFTLKLSRVEAEDLGVYFCSQSTHVPYTFGGGTKLEIK"}}, "biological_target": "T1, soluble human ICAM-R (human) (UniProt P32942)", "T1 sequence": "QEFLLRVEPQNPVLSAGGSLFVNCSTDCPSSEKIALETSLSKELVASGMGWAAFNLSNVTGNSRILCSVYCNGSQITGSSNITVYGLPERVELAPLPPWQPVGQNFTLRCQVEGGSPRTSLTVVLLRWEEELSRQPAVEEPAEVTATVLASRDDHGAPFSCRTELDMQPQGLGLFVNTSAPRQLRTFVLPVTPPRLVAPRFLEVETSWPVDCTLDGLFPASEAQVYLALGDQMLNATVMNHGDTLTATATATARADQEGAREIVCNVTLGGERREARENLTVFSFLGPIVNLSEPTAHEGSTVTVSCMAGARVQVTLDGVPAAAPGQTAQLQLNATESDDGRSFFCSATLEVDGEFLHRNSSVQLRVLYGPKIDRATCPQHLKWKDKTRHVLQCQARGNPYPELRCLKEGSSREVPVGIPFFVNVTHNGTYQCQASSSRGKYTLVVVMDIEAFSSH", "experiment": "ELISA on coated baculovirus soluble ICAM-R", "note": "No constants are given. Whether binding was seen depends on the method and setting. Some entries that bind do so weakly or less than the wild type.", "data": [{"binder": "B1", "values": [{"measurement": "binding", "result": "binds"}]}]}
